Experimental findings from patent US7494997B2, “Amide derivative” (Nippon Shinyaku Co., Ltd., priority 2002, dated 2009) are described below.

Molecules are shown by their SMILES.

For orientation: IC50 means the concentration needed to halve the response being measured.

One assay has as its system K562 cells. The assay can be described thus: Cell growth inhibitory effect, K562 cells (WST-8, 72 hours). The following applies: Homo sapiens, K562, 72 h, read-out: K562 cells (IC50 value: μM). (Formazan colour is commonly taken as a measure of viable cells.)
Another assay relates to U937 cells. Description: Cell growth inhibitory effect, U937 cells (WST-8, 72 hours). The following applies: Homo sapiens, U-937, 72 h, read-out: U937 cells (IC50 value: μM).

For the molecule `Cc1ccc(NC(=O)c2ccc(CN3CCN(C)CC3)cc2)cc1Nc1nccc(-c2cccnc2)n1` [control chemical, reference compound], the IC50 was 0.13 µM in the assay on K562 cells and 17.8 µM with U937 cells.
